{"source": "PubChem BioAssay AID1159578 (Peter MacCallum Cancer Centre, 2015)", "purpose": "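siRNA pools altering how lymphatic endothelial cells close a scratch wound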 (primary screen)", "cell system": "human lymphatic endothelial cells", "reagents": "siRNA pool against human genes, 40 nM", "time to read-out": "48 h after transfection", "detection": "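Cells stained with dye and imaged after a scratch; covered wound area and nuclei counted, duplicates averaged, migration set against mock wells and turned into a robust z-score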", "scale": "migration robust z-score: higher = faster migration into the scratch; nuclei per well: higher = more cells in the well", "call rule": "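Pools averaging fewer than 3300 nuclei are never called; remaining pools count as changed when migration robust z lies outside -2 to 2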", "meaning of the calls": "active = migration changed; inactive = no migration change, or too few cells", "note": "Shown is an unselected part of about 18,000 reagents. About 1,030 of them (5.7%) were called active. 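Inactive calls also include pools with fewer than 3300 nuclei, whose migration was not assessed.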 Raw values vary from plate to plate and are shown uncorrected. A number with no mark means an inactive call. Further read-outs or replicates are left out here."}
{"Gene":"OR6B1 (olfactory receptor family 6 subfamily B member 1)","migration robust z-score":0.76,"nuclei per well, duplicate mean":5032}
{"Gene":"OPTC (opticin)","migration robust z-score":-2.09,"nuclei per well, duplicate mean":2723}
{"Gene":"CMA1 (chymase 1)","migration robust z-score":0.21,"nuclei per well, duplicate mean":5539}
{"Gene":"PIAS1 (protein inhibitor of activated STAT 1)","migration robust z-score":0.13,"nuclei per well, duplicate mean":6161}
{"Gene":"SNORC","migration robust z-score":-0.3,"nuclei per well, duplicate mean":5154}
{"Gene":"PLAAT1 (phospholipase A and acyltransferase 1)","migration robust z-score":1.42,"nuclei per well, duplicate mean":5936}
{"Gene":"GAS2L3 (growth arrest specific 2 like 3)","migration robust z-score":"2.12 (active)","nuclei per well, duplicate mean":6456}
{"Gene":"OR8H2 (olfactory receptor family 8 subfamily H member 2)","migration robust z-score":-0.04,"nuclei per well, duplicate mean":5019}
{"Gene":"SNRNP35 (small nuclear ribonucleoprotein U11/U12 subunit 35)","migration robust z-score":0.14,"nuclei per well, duplicate mean":5849}
{"Gene":"IL21R (interleukin 21 receptor)","migration robust z-score":0.32,"nuclei per well, duplicate mean":5684}
{"Gene":"AKNA (AT-hook transcription factor)","migration robust z-score":-1.18,"nuclei per well, duplicate mean":4419}
{"Gene":"KIR3DL2","migration robust z-score":0.6,"nuclei per well, duplicate mean":6612}
{"Gene":"ZNF518A (zinc finger protein 518A)","migration robust z-score":1.02,"nuclei per well, duplicate mean":5848}
{"Gene":"LCE2D (late cornified envelope 2D)","migration robust z-score":0.23,"nuclei per well, duplicate mean":6450}
{"Gene":"FOXD4L6 (forkhead box D4 like 6)","migration robust z-score":0.21,"nuclei per well, duplicate mean":5970}
{"Gene":"APOM (apolipoprotein M)","migration robust z-score":-0.26,"nuclei per well, duplicate mean":6636}
{"Gene":"TRAPPC12 (trafficking protein particle complex subunit 12)","migration robust z-score":-0.16,"nuclei per well, duplicate mean":5836}
{"Gene":"OTOL1 (otolin 1)","migration robust z-score":-1.15,"nuclei per well, duplicate mean":6246}
{"Gene":"CCDC50 (coiled-coil domain containing 50)","migration robust z-score":0.08,"nuclei per well, duplicate mean":6516}
{"Gene":"CFAP107 (cilia and flagella associated protein 107)","migration robust z-score":0.1,"nuclei per well, duplicate mean":6972}
{"Gene":"COMMD7 (COMM domain containing 7)","migration robust z-score":-0.32,"nuclei per well, duplicate mean":4666}

Entries above whose target name starts with P or p:
{"Gene":"PIAS1 (protein inhibitor of activated STAT 1)","migration robust z-score":0.13,"nuclei per well, duplicate mean":6161}
{"Gene":"PLAAT1 (phospholipase A and acyltransferase 1)","migration robust z-score":1.42,"nuclei per well, duplicate mean":5936}
